Test results as given in paper PMC12259256.
These are yes or no findings as the source states them, for the method shown. Binding seen in cells or lysates may run through a third protein. Some binding calls cover weakened binding; strength is not graded here.

Amino acid sequences for entries named in this document (tags omitted). A change or cut given only in a name is not applied to a line headed by its entry. Residues count along the entry.
UniProt P09874: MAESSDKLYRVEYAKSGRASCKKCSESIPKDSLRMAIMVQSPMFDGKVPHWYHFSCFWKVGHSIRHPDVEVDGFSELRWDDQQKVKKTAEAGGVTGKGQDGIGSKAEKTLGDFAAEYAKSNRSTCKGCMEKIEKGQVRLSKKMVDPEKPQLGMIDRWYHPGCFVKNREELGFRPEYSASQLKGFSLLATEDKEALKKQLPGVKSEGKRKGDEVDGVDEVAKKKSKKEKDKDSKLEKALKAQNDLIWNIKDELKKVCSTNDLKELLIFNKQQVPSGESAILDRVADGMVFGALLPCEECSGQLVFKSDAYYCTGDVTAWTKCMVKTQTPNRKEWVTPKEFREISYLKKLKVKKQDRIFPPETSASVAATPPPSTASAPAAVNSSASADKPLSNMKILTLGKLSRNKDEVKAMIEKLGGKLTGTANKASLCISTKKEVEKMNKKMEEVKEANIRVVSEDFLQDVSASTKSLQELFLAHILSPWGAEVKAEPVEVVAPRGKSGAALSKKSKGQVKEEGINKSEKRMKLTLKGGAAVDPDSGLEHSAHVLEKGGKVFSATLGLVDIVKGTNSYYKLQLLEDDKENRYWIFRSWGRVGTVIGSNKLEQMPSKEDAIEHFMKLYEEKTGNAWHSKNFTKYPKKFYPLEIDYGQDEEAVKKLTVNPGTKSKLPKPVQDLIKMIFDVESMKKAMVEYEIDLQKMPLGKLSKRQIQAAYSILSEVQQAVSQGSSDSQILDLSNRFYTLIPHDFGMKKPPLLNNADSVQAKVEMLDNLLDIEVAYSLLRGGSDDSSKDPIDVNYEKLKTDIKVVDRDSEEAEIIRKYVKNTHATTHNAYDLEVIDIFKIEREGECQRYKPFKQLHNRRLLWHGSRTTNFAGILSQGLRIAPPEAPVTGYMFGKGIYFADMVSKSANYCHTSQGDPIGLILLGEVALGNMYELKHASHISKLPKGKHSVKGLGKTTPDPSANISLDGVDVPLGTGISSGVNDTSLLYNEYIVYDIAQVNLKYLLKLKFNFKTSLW
UniProt P22607, residues 23-806: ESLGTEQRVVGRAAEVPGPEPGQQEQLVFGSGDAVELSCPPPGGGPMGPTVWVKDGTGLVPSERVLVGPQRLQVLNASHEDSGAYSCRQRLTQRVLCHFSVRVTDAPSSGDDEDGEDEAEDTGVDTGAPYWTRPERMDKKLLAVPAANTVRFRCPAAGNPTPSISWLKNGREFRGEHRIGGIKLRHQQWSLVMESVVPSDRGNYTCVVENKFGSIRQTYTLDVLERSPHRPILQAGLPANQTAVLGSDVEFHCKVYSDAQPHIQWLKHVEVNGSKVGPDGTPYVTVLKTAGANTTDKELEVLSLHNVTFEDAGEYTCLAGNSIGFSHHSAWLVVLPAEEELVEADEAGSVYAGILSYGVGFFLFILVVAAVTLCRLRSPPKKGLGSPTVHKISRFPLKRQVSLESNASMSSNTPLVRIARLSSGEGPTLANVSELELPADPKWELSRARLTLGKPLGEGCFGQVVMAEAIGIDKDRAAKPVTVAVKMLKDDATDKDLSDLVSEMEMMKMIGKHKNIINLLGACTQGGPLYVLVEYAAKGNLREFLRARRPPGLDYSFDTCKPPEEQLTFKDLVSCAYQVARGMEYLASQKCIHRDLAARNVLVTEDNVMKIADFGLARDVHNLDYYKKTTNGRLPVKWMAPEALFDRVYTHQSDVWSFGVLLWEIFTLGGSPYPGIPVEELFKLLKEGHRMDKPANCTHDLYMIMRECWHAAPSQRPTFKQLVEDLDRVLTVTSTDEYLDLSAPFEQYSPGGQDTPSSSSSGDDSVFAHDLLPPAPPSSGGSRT
UniProt P51532: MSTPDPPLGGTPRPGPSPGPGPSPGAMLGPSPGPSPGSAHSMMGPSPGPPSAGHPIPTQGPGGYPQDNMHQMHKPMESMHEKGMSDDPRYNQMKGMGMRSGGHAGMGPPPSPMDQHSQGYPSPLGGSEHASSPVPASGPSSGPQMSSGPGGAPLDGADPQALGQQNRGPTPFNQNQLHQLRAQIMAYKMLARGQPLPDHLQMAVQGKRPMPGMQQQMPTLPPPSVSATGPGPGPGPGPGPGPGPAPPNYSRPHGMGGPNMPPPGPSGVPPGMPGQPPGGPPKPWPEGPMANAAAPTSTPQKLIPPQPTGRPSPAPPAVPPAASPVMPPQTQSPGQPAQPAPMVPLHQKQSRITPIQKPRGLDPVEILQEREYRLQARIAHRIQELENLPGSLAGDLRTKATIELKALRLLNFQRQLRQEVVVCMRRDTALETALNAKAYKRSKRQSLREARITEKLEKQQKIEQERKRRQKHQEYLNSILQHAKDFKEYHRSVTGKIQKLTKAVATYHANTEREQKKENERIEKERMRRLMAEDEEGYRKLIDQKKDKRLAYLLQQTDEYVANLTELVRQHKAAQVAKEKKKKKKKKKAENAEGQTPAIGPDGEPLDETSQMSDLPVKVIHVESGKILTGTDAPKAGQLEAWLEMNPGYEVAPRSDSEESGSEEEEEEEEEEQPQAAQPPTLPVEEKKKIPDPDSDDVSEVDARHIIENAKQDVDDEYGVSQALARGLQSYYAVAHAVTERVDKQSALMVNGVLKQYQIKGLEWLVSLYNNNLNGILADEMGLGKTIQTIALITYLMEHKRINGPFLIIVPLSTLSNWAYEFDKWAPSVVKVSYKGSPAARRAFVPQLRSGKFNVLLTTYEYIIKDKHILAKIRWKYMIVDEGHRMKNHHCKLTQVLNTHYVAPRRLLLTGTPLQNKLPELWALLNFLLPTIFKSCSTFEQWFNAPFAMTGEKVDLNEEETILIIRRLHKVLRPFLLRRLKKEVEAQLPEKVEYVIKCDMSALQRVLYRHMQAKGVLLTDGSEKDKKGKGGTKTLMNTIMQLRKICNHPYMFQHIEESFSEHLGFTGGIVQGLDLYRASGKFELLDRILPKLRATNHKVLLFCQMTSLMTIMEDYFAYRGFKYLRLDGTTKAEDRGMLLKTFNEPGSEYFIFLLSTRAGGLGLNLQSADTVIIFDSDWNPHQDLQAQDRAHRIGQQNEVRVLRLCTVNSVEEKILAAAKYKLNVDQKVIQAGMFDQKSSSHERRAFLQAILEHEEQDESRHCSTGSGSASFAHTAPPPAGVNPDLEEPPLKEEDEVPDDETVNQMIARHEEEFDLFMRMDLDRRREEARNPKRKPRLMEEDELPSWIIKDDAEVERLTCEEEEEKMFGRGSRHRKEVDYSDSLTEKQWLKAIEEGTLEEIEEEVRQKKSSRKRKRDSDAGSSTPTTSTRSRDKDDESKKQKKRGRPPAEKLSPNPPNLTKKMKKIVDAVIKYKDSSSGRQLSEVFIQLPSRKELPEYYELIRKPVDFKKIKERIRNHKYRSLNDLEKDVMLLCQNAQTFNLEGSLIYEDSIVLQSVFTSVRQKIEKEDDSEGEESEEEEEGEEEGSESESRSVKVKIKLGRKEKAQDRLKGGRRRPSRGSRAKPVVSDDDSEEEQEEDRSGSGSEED

Legend:
HA-PARP1 Y158D = HA-PARP1 Y158D (UniProt P09874); experiment: co-IP; BR#09 cells expressing HA-PARP1 wild type or mutants, treated with 100 nM talazoparib and 0.01% MMS for 1 hour; immunoprecipitation with anti-HA or control IgG, Western blot
HA-PARP1 Y158F = HA-PARP1 Y158F (UniProt P09874); experiment: as above
HA-PARP1 wild type = HA-PARP1 wild type (UniProt P09874); experiment: as above
[1] = biological target: FGF receptor 3 (human (endogenous in SUM149 and SUM149-BR cells)) (UniProt P22607); experiment: co-IP; coimmunoprecipitation of FGFR3 and PARP1 from cells; seen also in untreated cells and in parental SUM149 cells; which protein was precipitated is not told in the main text
[2] = biological target: FGF receptor 3 (human (endogenous in SUM149 and SUM149-BR cells)) (UniProt P22607); experiment: proximity ligation; BR#09 and BR#17 cells treated with 0.01% MMS and inhibitors (100 nM talazoparib, 10 uM PD173074 or both), PLA with FGFR3 and PARP1 antibodies; nuclear PLA signals counted; signal attenuated with the combination

| Substance | binding (HA-PARP1 Y158D) | binding (HA-PARP1 Y158F) | binding (HA-PARP1 wild type) | binding [1] | binding [2] |
| --- | --- | --- | --- | --- | --- |
| Brahma-related gene 1 (from UniProt P51532 1-1647) | binds | binds | binds | – | – |
| poly(ADP-ribose) polymerase 1 (from UniProt P09874 1-1014) (enzyme) | – | – | – | binds | binds |
